# Measurements from patent US5989874A, “Humectant, antistatic agent, dispersant and film-forming agent having polysaccharide as active principle, preparation process of polysaccharides, and Kliebsiella ocytoca TNM-3 strain” (Tayca Corporation, priority 1995, dated 1999).
# At least one compound was matched to its structure with a doubt left.
# How the values were obtained:
# [1] = Moisture retention in high-humidity environment; format: physicochemical; conditions: relative humidity 92.9%, 30° C., 3 days
# Description: The above operations were carried out at a constant temperature of 30° C.
# [2] = Moisture retainability in low-humidity environment; format: physicochemical; conditions: relative humidity 20%, 20° C., 3 days
smiles,measurement,setting,value
"O=C1CCC(C(=O)O)N1 (centres unmarked) [Sodium pyrrolidonecarboxylate, sodium pyrrolidonecarboxylate]",Material retention percentage (moisture retention percentage),[1],218.3%
same,Moisture retention,[2],8.5%
